The other results are listed elsewhere or left out. These are further read-outs of the screen, such as a control signal, another cell line or another target. No call is given for them. The list favours compounds with an active or inconclusive main result.

The test in a line: dynein cargo transport inhibitors, GR-EGFP translocation, confirmation, imaging, high-content imaging, GR-EGFP cells (AID 463116). Particulars: 3617.4 GR-EGFP nuclear translocation imaging, dexamethasone-induced; measured here: cell count per field; at 20 µM.
For the compound `Cn1c(Cl)cnc1C1CC(=O)c2cc(Cl)ccc2O1` (stereo not given), the z-score is -0.475.
On to `Cc1ccc(Cn2cc(/C=N/Nc3ccc([N+](=O)[O-])cn3)c3ccccc32)cc1`, for which the z-score stood at 0.528.
With `CNC(=O)c1nnsc1S(=O)c1ccc(Cl)cc1` (stereo not given), the z-score was -0.466.
As for `O=C1CN(C(=O)Cn2ncc(Cl)c(Cl)c2=O)c2ccccc2N1`, the z-score came to 0.0476.
In turn, `COc1ccc(CNC(=O)Cn2nnc3ccccc3c2=O)cc1` returned a z-score of -0.0452.
Under `Cc1ccc(NC(=O)CCl)cc1S(=O)(=O)N1CCCCCC1` stands -0.271.
In turn, `O=C(Nc1ccc(N2CCOCC2)c(Cl)c1)c1ccc([N+](=O)[O-])o1` displayed a z-score of -0.424.
In the case of `Cc1cc(C)c(S(=O)(=O)ON2C(=O)c3ccccc3C2=O)cc1C`, the z-score turned out to be 0.504.
With `CC(C)(C)c1cnnn1-c1ccc(C(=O)CCl)cc1`, the z-score came to 0.249.
As for `N#C/C(=C\c1ccccc1)C(=O)N(c1ccccn1)C1CCCCC1`, the z-score was determined as 0.315.
Consider `Cn1cc([N+](=O)[O-])c(C(=O)Nc2nc(-c3ccc(Cl)cc3)cs2)n1`, for which the z-score amounted to 0.803.
`Cn1nc([N+](=O)[O-])c(C(C#N)c2nc3ccccc3n2C)c(Cl)c1=O` (stereo not given) came in with a z-score of -0.0548.
Under `COc1ccccc1-c1cc(C(F)(F)F)nc(S(=O)(=O)CCCC(=O)N2CCCCC2C)n1` (stereo not given) stands -1.26; under `C=CS(=O)(=O)c1sc(Cl)c(N2CCOCC2)c1[N+](=O)[O-]`, 0.534; under `Cc1cc(N2CCCC2)c(F)cc1/C=C\[N+](=O)[O-]`, 0.292.
On to `CCc1ccccc1NC(=O)CN(C)C(=O)Cn1ncc(Cl)c(Cl)c1=O`, for which the z-score is -0.558.
For `O=C(CCl)c1ccc2c(c1)CCN2C(=O)C1CCCCC1`, the z-score was determined as 0.127.
For the compound `C=CCSc1nc2ccccc2n1C(=O)/C=C/c1cc(OC)c(OC)c(OC)c1`, the z-score was 1.08.
In the case of `Cc1ccc(C(=O)/C=C/c2ccccc2)o1`, the z-score was -1.
The compound `Cc1c(C#N)c(NC(=O)CCl)n(Cc2cccs2)c1C` had a z-score of 0.268.
`COc1cc(/C=C2\SC(=O)NC2=O)ccc1Oc1ccc([N+](=O)[O-])cc1[N+](=O)[O-]` showed a z-score of 0.279.
For the compound `O=C(Nc1ccccc1)C1=C(c2ccccc2)S(=O)(=O)CCS1(=O)=O`, the z-score was -4.99.
Next, `Nc1nc2ccc(S(=O)(=O)N3CCCCC3)cc2s1`: -0.213; `O=C(/C(=C/c1ccc(Cl)cc1)c1nc2ccccc2[nH]1)c1cccs1`: -0.103.
Under `O=C(Sc1ccccc1)c1cccc(Cn2cc(C(F)(F)F)ccc2=O)c1` stands 0.845.
Under `C=CCn1c(C)cc(C(=O)Cn2ncc(Cl)c(Cl)c2=O)c1C` stands 0.515; under `CS(=O)(=O)c1ccc(S(=O)CC(=O)OCc2ccccc2)c([N+](=O)[O-])c1` (stereo not given), -2.1; under `O=C(/C(=C/c1ccc(Cl)cc1)c1nc2ccccc2[nH]1)c1ccccc1`, 0.696.
For `Cc1ccc(C(=O)NC(C#N)=C(Cl)Cl)cc1`, the z-score worked out at 0.103.
`O=C(/C=C/c1ccccn1)c1cc(Br)ccc1O` showed a z-score of 0.356.
In the case of `Cc1nc([N+](=O)[O-])c(Br)n1CC(=O)c1ccc2ccccc2c1`, the z-score was 0.539.
Next, `CN(C(=O)CCl)C1CCCc2ccccc21` (stereo not given): -0.0293; `CCN(CC)c1ccc2cc(-c3nc(-c4ccc(OC)cc4)cs3)c(=O)oc2c1`: -0.171; `COCCN(C(=O)CCl)C(C(=O)NC1CCCCC1)c1ccccc1C` (stereo not given): 0.101.
Next, `COc1ccccc1C(C[N+](=O)[O-])c1c(N)n(C)c(=O)n(C)c1=O` (stereo not given): -0.364.
Compound `O=C1ON=C(c2ccccc2)/C1=C\c1ccco1` came in with a z-score of -0.127.
Compound `CCCCNc1c2c3c(cccc3n(C)c1=O)C(=O)c1ccccc1-2` registered a z-score of -0.223.
`COc1cccc(Nc2ncccc2C(=O)NCc2ccccc2)c1` returned a z-score of 0.17.
Turning to `CC(=O)Cn1ncc(Br)c(Br)c1=O`, the z-score was 0.41.
Next, `COc1ccc(OC)c(S(=O)(=O)Nc2ccc(O)c3ccccc23)c1`: 0.0309; `COC(=O)c1cc(NC(=O)c2ccccc2)c(=O)oc1/C=C/Nc1ccc(Oc2ccccc2)cc1`: 0.51.
Under `C=CCS(=O)(=O)c1nc2ccccc2s1` stands 0.432; under `Cc1ccc(OCC(=O)c2ccc(Cl)s2)c([N+](=O)[O-])n1`, 0.00933; under `CC(=O)OCCCNc1cc(Sc2ccc(C)cc2)c2nonc2c1[N+](=O)[O-]`, -0.113.
Regarding `Cc1ccc(C(C[N+](=O)[O-])Sc2ccc(N)cc2)cc1` (stereo not given), the z-score was found to be 0.226.
`O=C(CSC1=Nc2ccccc2C2CC=NN12)Nc1ccc2c(c1)OCO2` (stereo not given): the z-score is -0.295.
`CCCn1c(CC)nc([N+](=O)[O-])c1S(=O)(=O)c1ccccc1`: the z-score was found to be 0.972.
`CCOC(=O)c1c(-c2ccc(C)o2)csc1NC(=S)NC(=O)N(C)C` showed a z-score of 0.594.
`CC[n+]1c(/C=C2\Sc3ccccc3N2C)ccc2cccc(C)c21` had a z-score of -0.319.
Compound `O=c1cc(N=Nc2ccc(Cl)cc2)[nH]c(=O)[nH]1` registered a z-score of 0.215.
Next, `CC(NCC(O)COCCC12CC3CC(CC(C3)C1)C2)c1ccccc1` (stereo not given): -4.8; `COc1ccc(CN=Cc2[nH]c3ccc(Br)c(Cl)c3c2O)cc1`: -0.031.
The compound `Nc1c(C(=O)N/N=C/c2ccc(F)cc2)oc2nc(-c3ccccc3)cc(-c3ccco3)c12` had a z-score of -0.855.
`CCN1CCN(C2=CC3=CC(=C(C#N)C#N)CCC3CC2)CC1` (stereo not given) had a z-score of -0.731.
The compound `O=C(CCl)Nc1ccc(-c2ccccc2)cc1` came in with a z-score of 0.0215.
The compound `CC(=O)n1cc(C(C[N+](=O)[O-])SCCN)c2ccccc21` (stereo not given) yielded a z-score of 1.41.
`COc1ccc(/C=C/C(=O)c2c(O)c(OC)c3occc3c2OC)cc1` came in with a z-score of -0.0552.
In turn, `O=c1c(Cl)c(Cl)cnn1Cc1nnc(-c2ccccc2Br)o1` came in with a z-score of -0.574.
With `O=C(CCC(=O)Nc1ccc(Cl)cc1Cl)N/N=C/c1ccc([N+](=O)[O-])o1`, the z-score worked out at 0.696.
Compound `CCCC(=O)OCCNc1cc(SCCC(=O)OC)c2nonc2c1[N+](=O)[O-]` yielded a z-score of 0.158.
The compound `CCN1CCN(Cc2c(O)ccc3c2O/C(=C\C=C\c2ccccc2)C3=O)CC1` registered a z-score of 0.188.
In turn, `CC(C)N1C/C(=C/c2ccsc2)C(=O)/C(=C/c2ccsc2)C1` registered a z-score of 0.35.
Compound `COc1ccc(/C=C\c2nc(=O)c3ccccc3o2)cc1` displayed a z-score of 0.0205.
For `COc1cccc(N(C(=O)CCl)C(C(=O)NCCc2ccccc2)c2cccs2)c1` (stereo not given), the z-score was -0.138.
The compound `COc1cccc(F)c1C(C[N+](=O)[O-])c1c(N)n(C)c(=O)n(C)c1=O` (stereo not given) displayed a z-score of -0.863.
`CC1(C)Cc2c(C#N)c(NC3CCCCC3)nc(-c3ccco3)c2CO1`: the z-score came to 0.171.
As to `O=C(NC(=S)Nc1ccc(-c2ccc(CO)o2)cc1)c1cccs1`, the z-score was determined as 0.174.
Regarding `CCn1c(=O)c([N+](=O)[O-])c(Cl)c2ccccc21`, the z-score was 0.293.
For `CC(C)CCn1c(=O)c2ccccc2n2c(CCl)nnc12`, the z-score was -0.545.
Consider `CN1CCN(C2=CC3=CC(=C(C#N)C#N)CCC3CC2)CC1` (stereo not given), for which the z-score was found to be 0.0583.

The record behind these values is PubChem BioAssay AID463116 (University of Pittsburgh Molecular Library Screening Center, 2010).
